# Measured values published in PubChem BioAssay AID1671190 (National Center for Advancing Translational Sciences (NCATS), 2021).
# The chains behind the UniProt entries cited, without tags or fusion partners.
# UniProt P18054, whole entry, looked up: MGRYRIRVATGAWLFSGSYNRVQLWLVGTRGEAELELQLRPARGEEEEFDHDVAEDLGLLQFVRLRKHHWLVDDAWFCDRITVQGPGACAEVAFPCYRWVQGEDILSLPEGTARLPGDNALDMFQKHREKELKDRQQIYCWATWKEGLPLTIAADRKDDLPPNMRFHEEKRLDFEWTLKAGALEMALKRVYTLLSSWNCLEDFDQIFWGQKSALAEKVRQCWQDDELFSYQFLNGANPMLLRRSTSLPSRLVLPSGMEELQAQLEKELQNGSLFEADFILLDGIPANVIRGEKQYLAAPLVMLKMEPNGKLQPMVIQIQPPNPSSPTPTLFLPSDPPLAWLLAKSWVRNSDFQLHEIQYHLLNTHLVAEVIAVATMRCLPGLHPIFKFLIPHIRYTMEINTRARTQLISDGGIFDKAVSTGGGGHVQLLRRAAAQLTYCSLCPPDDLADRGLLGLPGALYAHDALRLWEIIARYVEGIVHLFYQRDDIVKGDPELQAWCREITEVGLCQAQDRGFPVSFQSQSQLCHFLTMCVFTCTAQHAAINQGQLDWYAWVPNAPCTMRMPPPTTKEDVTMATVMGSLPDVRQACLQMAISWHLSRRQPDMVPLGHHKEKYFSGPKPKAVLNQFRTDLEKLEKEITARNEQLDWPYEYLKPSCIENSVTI
# Hit rate of the full screen: of about 580,000 compounds, about 6,100 (1.1%) were called active. Inconclusive means that the source gave no clear call. Such entries were picked first, then a sample of the others. The call rests on the fitted dose curve; in most records, active means well fitted inhibition curve with a large enough effect; inconclusive means small, poorly fitted or top-dose-only effect, or another doubt; inactive means no such curve, though single readings can be large or run the other way. Where the call is inconclusive, the potency comes from a doubtful curve fit.
# Biological target: Polyunsaturated fatty acid lipoxygenase ALOX12 (Homo sapiens) (UniProt P18054)
# Test: Primary qHTS assay for inhibitors of human arachidonate 12S-lipoxygenase (ALOX12): Round 2
# Settings: purified 12hLO, xylenol orange hydroperoxide absorbance; series mostly up to 108 µM
# Procedure, shortened: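 Purified human 12hLO (150 nM final) in 25 mM Hepes, 0.01% Triton X-100, pH 7.0 was preincubated 15 min at room temperature with compound. Then 40 uM arachidonic acid was added, 30 min. Hydroperoxide was read by Fe-XO absorbance ratio 573/405 nm.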
# Potency means the concentration at half of the fitted maximal effect.
row,SMILES,Potency
1,Cc1c(C(=O)C(=O)Nc2cccc(F)c2)c2ccccc2n1C,"inconclusive: 126 µM [inhibitor, single point]"
2,COc1ccc2ccccc2c1C=NN1CCCCC1,"inconclusive: 4.47 µM [inhibitor, full curve]"
3,Cc1ccc(C(=O)OCC(=O)Nc2ccc3[nH]c(=O)[nH]c3c2)cc1S(=O)(=O)N1CCOCC1,"inconclusive: 44.7 µM [inhibitor, partial curve, poor fit]"
4,c1ccc(CCCCc2ccccn2)cc1,inactive
5,CN(CCOc1ccc(F)cc1)Cc1ccccc1,"inconclusive: 4.47 µM [inhibitor, full curve, poor fit]"
6,COc1cccc(N2Cc3nc(=O)n(CC(=O)NCc4ccccc4)n3C2=O)c1,"inconclusive: 31.6 µM [inhibitor, partial curve, poor fit]"
7,Cc1cccn2c(=O)c(C(=O)NC3CCCCC3)c(O)nc12,inactive
8,COc1cc(Nc2nc(SCC(=O)c3ccc(Br)cc3)nc3ccccc23)cc(OC)c1,inactive
9,CCOC(=O)c1sc(=S)n(CC)c1N,"inconclusive: 112 µM [inhibitor, single point]"
10,COc1cccc(CNCCNC(=O)c2nonc2N)c1,"inconclusive: 44.7 µM [inhibitor, partial curve]"
11,CC(C)(C)OC(=O)N[C@@H](Cc1ccccc1)C(=O)NCC1CCC(C(=O)N[C@@H](CCC(N)=O)C(=O)O)CC1 (stereo partly specified),"inconclusive: 31.6 µM [inhibitor, single point]"
12,CNC(=O)[C@@H](c1ccccc1F)N1CCC[C@H]1C(=O)NCC1CC1,"inconclusive: 11.2 µM [inhibitor, partial curve]"
13,CCCCCCn1c(NCC)nc2c1c(=O)n(C)c(=O)n2C,inactive
14,O=C(CN1CCN(c2ccc(O)cc2)CC1)Nc1ccc2c(c1)OCCCO2,"inconclusive: 4.47 µM [inhibitor, partial curve, poor fit]"
15,CCN1CCN(CC#CCOc2ccccc2OC)CC1,"inconclusive: 1.12 µM [inhibitor, full curve]"
16,Cc1ccc(NC(=O)COc2ncnc3ccccc23)c(C)c1,"inconclusive: 79.4 µM [inhibitor, partial curve, poor fit]"
17,Cc1c(NC(=O)c2ccc(C(=O)Nc3c(C)n(C)n(-c4ccccc4)c3=O)cc2)c(=O)n(-c2ccccc2)n1C,inactive
18,O=C(NCc1ccccc1Cl)c1cc2c(s1)-c1ccc(Cl)cc1SC2,"inconclusive: 20 µM [inhibitor, partial curve, poor fit]"
19,Cc1cccc(NC(=S)N/N=C2\CC(C)(C)Oc3ccc(O)cc32)c1,"inconclusive: 12.6 µM [inhibitor, partial curve, poor fit]"
20,Cc1cccc(NS(=O)(=O)c2c(C)nc3sccn3c2=O)c1C,inactive
21,O=C(O)Cn1nc2c3c(cccc3c1=O)-c1ccccc1-2,inactive
22,Nc1nc(N2CCN(c3ccc(Cl)cc3)CC2)n[nH]1,"inconclusive: 158 µM [inhibitor, partial curve, poor fit]"

row,SMILES,Potency
1,Cc1cc(N2CCN(C(C(=O)O)c3c[nH]c4ccc(CO)cc34)CC2)nc2ccccc12 (stereo unspecified),"inconclusive: 79.4 µM [inhibitor, single point]"
2,Cc1csc(NC(=O)c2sccc2-c2ccccc2)n1,inactive
3,O=C(Nc1ccccc1F)N1CC2CCC(C1)N2Cc1cccc(Cl)c1,"inconclusive: 31.6 µM [inhibitor, full curve]"
4,CN(C)CCNC(=O)c1ccc(Cl)c2cc3ccccc3nc12,"inconclusive: 6.31 µM [inhibitor, full curve, poor fit]"
5,Cc1cc(C)c(NC(=O)Cn2cccc2-c2nc(-c3ccc(F)cc3)no2)c(C)c1,"inconclusive: 89.1 µM [inhibitor, single point]"
6,c1ccc(CN2CCC(CNc3ncnc4ccccc34)C2)cc1 (stereo unspecified),"inconclusive: 126 µM [inhibitor, single point]"
7,CN(CC(=O)Nc1ccccc1C(F)(F)F)Cc1cc(Cl)cc2c1OCOC2,inactive
8,CN(Cc1ccccc1)C(=O)c1cc(-c2cccc(Cl)c2)n[nH]1,inactive
9,CC(=O)N1CCc2c(sc(NC(=O)CSc3ccccc3)c2-c2nc3ccccc3s2)C1,"inconclusive: 126 µM [inhibitor, single point]"
10,COc1ccc(-c2noc([C@@H]3CCCN3C(=O)c3ccc(F)cc3Cl)n2)cc1,"inconclusive: 17.8 µM [inhibitor, full curve, poor fit]"
11,O=C(Nc1ccc(-c2nc3cc(Cl)ccc3c(=O)o2)cc1)c1ccco1,inactive
12,COc1ccc(NC(=O)CN(C)C(=O)Cc2ccc3c(c2)CCC3)cc1,"inconclusive: 35.5 µM [inhibitor, partial curve, poor fit]"
13,O=C(CSc1nnc(NC2CCCCC2)s1)N1CCOCC1,"inconclusive: 63.1 µM [inhibitor, partial curve, poor fit]"
14,Cc1ccc(-c2ccc(=O)n(Cc3noc(C(=O)NCc4ccco4)n3)n2)cc1,"inconclusive: 50.1 µM [inhibitor, partial curve, poor fit]"
15,COc1ccc(CC(N)c2csc(Nc3ccc(C(=O)c4ccccc4)cc3)n2)cc1 (stereo unspecified),"inconclusive: 44.7 µM [inhibitor, partial curve, poor fit]"
16,CCn1c(SCC(=O)c2ccccc2)nnc1-c1ccoc1C,"inconclusive: 22.4 µM [inhibitor, partial curve, poor fit]"
17,O=C1NC(=S)S/C1=C/c1ccc(OC(=O)c2ccco2)cc1,"inconclusive: 44.7 µM [inhibitor, partial curve, poor fit]"
18,CCn1c(CCc2ccccc2)n[nH]c1=S,"inconclusive: 39.8 µM [inhibitor, partial curve, poor fit]"
19,O=C(N/N=C/c1cn(-c2cccs2)nc1-c1ccccc1)c1ccccc1O,"inconclusive: 44.7 µM [inhibitor, partial curve, poor fit]"
20,COc1ccccc1CNC(=O)c1ccc(CS(=O)(=O)c2ccc(C)cc2)o1,"inconclusive: 50.1 µM [inhibitor, partial curve]"
21,C=CCNC(=S)NNC(=O)c1cccn(Cc2ccc(Cl)cc2Cl)c1=O,"inconclusive: 50.1 µM [inhibitor, partial curve, poor fit]"
22,CCCNC(=O)NC(=O)c1cnccc1C(F)(F)F,"inconclusive: 126 µM [inhibitor, single point]"

# Among those listed so far, four contain an aryl thioether with sulfur outside any ring.
row,SMILES,Potency
8,COc1cc(Nc2nc(SCC(=O)c3ccc(Br)cc3)nc3ccccc23)cc(OC)c1,inactive
9,CC(=O)N1CCc2c(sc(NC(=O)CSc3ccccc3)c2-c2nc3ccccc3s2)C1,"inconclusive: 126 µM [inhibitor, single point]"
13,O=C(CSc1nnc(NC2CCCCC2)s1)N1CCOCC1,"inconclusive: 63.1 µM [inhibitor, partial curve, poor fit]"
16,CCn1c(SCC(=O)c2ccccc2)nnc1-c1ccoc1C,"inconclusive: 22.4 µM [inhibitor, partial curve, poor fit]"

# (list continues)

row,SMILES,Potency
1,O=C(NC(c1ccc2c(c1)OCO2)c1ccccn1)C1CCN(CCOc2ccc(Cl)cc2Cl)CC1 (stereo unspecified),"inconclusive: 50.1 µM [inhibitor, partial curve, poor fit]"
2,CCOC(=O)[C@H]1[C@H]2COc3ccccc3[C@@H]2N2C(=O)c3cc(Cl)ccc3NC(=O)[C@@]12C,"inconclusive: 22.4 µM [inhibitor, partial curve, poor fit]"
3,N=C(N)SCP(=O)(c1ccccc1)c1ccccc1,inactive
4,CC(=O)N1CCC(C(NC(=O)c2ccccc2)C(=O)NCc2ccco2)CC1 (stereo unspecified),inactive
5,O=S(=O)(NCCc1csc(-c2ccccc2)n1)c1ccc2c(c1)OCCO2,"inconclusive: 89.1 µM [inhibitor, single point]"
6,CCc1noc(-c2ccn3c(CNC(=O)c4ccoc4)nnc3c2)n1,inactive
7,CC(CN1CCN(Cc2ccccc2)CC1)c1ccccc1 (stereo unspecified),"inconclusive: 0.316 µM [inhibitor, full curve, poor fit]"
8,O=C(/C=C/c1cccc(F)c1)Nc1ccc(S(=O)(=O)Nc2ncccn2)cc1,"inconclusive: 56.2 µM [inhibitor, partial curve, poor fit]"
9,O=C(Cn1c(=O)c2cccn2c2cccnc21)NCc1cccc(F)c1,inactive
10,CCOc1cc(N2CCOCC2)c(OCC)cc1NC(=O)CN1C(=O)C2C3C=CC(C3)C2C1=O (stereo unspecified),"inconclusive: 39.8 µM [inhibitor, single point]"
11,Cc1ccc(S(=O)(=O)Nc2cccc(-c3cn4cccc(C)c4n3)c2)c(C)c1,"inconclusive: 5.62 µM [inhibitor, full curve, poor fit]"
12,O=C(CN1C(=O)COc2ccc(C(=O)COc3ccc(Cl)cc3F)cc21)NCCc1ccccc1,"inconclusive: 89.1 µM [inhibitor, single point]"
13,O=C(Cn1c(SCc2ccccc2F)nc2ccncc21)Nc1ccccc1C(F)(F)F,inactive
14,COc1cccc(C(=O)N2CC3(Cc4ccccc4N(C(C)=O)C3)C2)c1,inactive
15,O=C(NCc1ccccn1)c1cc(S(=O)(=O)C2CCS(=O)(=O)C2)ccc1F (stereo unspecified),inactive
16,CCN(C(=O)COc1ncnc2ccc(Br)cc12)c1ccccc1,"inconclusive: 79.4 µM [inhibitor, partial curve, poor fit]"
17,CCc1cc(=O)n(CC(=O)Nc2ccc(N(C)C)cc2)c(-c2cccc(F)c2)n1,"inconclusive: 44.7 µM [inhibitor, partial curve, poor fit]"
18,O=C(Nc1ccc(NC(=O)c2cccs2)c(Cl)c1)c1cccs1,inactive
19,COc1cccc2cc(C(=O)C3=C(O)C(=O)N(CCN4CCOCC4)C3c3cccs3)oc12 (stereo unspecified),"inconclusive: 2.51 µM [inhibitor, full curve, poor fit]"
20,COc1cc(NC(=O)Cn2cccc2-c2nc(-c3ccc(OC)c(F)c3)no2)cc(OC)c1,"inconclusive: 3.16 µM [inhibitor, full curve, poor fit]"
21,O=Cc1cc(Cc2ccccc2Cl)cc(Br)c1O,"inconclusive: 1.41 µM [inhibitor, full curve, poor fit]"
22,CS(=O)(=O)Nc1cccc(-c2ccc3ncnc(NCCN4CCOCC4)c3c2)c1,"inconclusive: 28.2 µM [inhibitor, partial curve, poor fit]"
